Measured data: PubChem BioAssay AID686938 (Drosophila RNAi Screening Center, 2013)
Purpose: 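Fly genes required for calcium entry once internal stores are emptied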 (primary screen). Cells: Drosophila S2R+ cells. Knock-down reagent: long dsRNA against Drosophila genes, about 0.25 µg dsRNA per well, roughly 10,000 cells. Time to read-out: 5 days of knock-down before the calcium assay. Challenge: thapsigargin (SERCA pump blocker) to empty calcium stores; entry signal taken 4 min after adding it. Measurement: 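Duplicate raw fluo-4 intensities per well from a plate reader, at rest and four minutes after thapsigargin emptied calcium stores; entry-to-rest ratio filled for only some wells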. Direction: calcium entry signal: higher = stronger calcium signal after store depletion; resting calcium signal: higher = higher resting calcium signal. Rule for the call: 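Called when the plate z-score of the entry-to-rest ratio, mean of duplicates, falls below −3; wells with low overall dye signal (Fmax z below −2) or more than five off-targets excluded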. Calls: active = strongly reduced calcium entry; inactive = no strong reduction.
In all, the deposit lists about 23,000 reagents; this is a random part of those that have a named target and a result. In the full data, 75 (0.33%) are marked active. 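Raw plate signals without normalisation; calls rest on plate z-scores that were not deposited; ratio present for only 364 wells.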 Not given: the dose of the treatment.

gene | dsRNA | calcium entry signal, replicate 1 (fluorescence units) | calcium entry signal, replicate 2 (fluorescence units) | resting calcium signal, replicate 1 (fluorescence units) | resting calcium signal, replicate 2 (fluorescence units) | Outcome
thr | DRSC07706 | 2.37e7 | 2.27e7 | 1.43e7 | 1.44e7 | inactive
RpL23A | DRSC08694 | 1.52e7 | 2.10e7 | 9.93e6 | 1.35e7 | inactive
RpL23A | DRSC22035 | 3.20e7 | 4.94e7 | 1.59e7 | 2.68e7 | inactive
CG33306 | DRSC01899 | 4.33e7 | – | 2.09e7 | – | inactive
ArfGAP3 | DRSC11794 | 3.17e7 | 4.76e7 | 1.63e7 | 3.30e7 | inactive
CG8834 | DRSC07283 | 3.23e7 | 3.69e7 | 1.69e7 | 1.77e7 | inactive
CG42402 | DRSC21116 | 4.97e7 | 5.19e7 | 2.38e7 | 2.04e7 | inactive
CycA | DRSC09132 | 3.27e7 | 5.44e7 | 2.09e7 | 3.45e7 | active
CycA | DRSC11123 | 3.61e7 | 4.93e7 | 2.14e7 | 3.80e7 | inactive
CG33120 | DRSC02073 | 4.95e7 | – | 2.36e7 | – | inactive
gcm | DRSC03536 | 3.60e7 | 6.90e7 | 1.87e7 | 3.04e7 | inactive
Cep97 | DRSC00637 | 4.38e7 | – | 2.80e7 | – | inactive
Rop | DRSC08693 | 4.86e7 | 3.84e7 | 3.53e7 | 1.83e7 | inactive
Skel | DRSC14905 | 3.55e7 | 3.36e7 | 1.64e7 | 1.72e7 | inactive
Skel | DRSC14906 | 3.29e7 | 4.38e7 | 1.52e7 | 1.90e7 | inactive
CG15531 | DRSC15068 | 2.37e7 | 3.06e7 | 1.32e7 | 1.41e7 | inactive
d-cup | DRSC14846 | 2.95e7 | 3.14e7 | 1.55e7 | 1.67e7 | inactive
dgt6 | DRSC14424 | 3.03e7 | 3.22e7 | 1.45e7 | 1.81e7 | inactive
edin | DRSC09488 | 1.94e7 | 2.48e7 | 1.00e7 | 1.00e7 | inactive
scramb2 | DRSC08543 | 3.85e7 | 3.83e7 | 2.01e7 | 1.83e7 | inactive
l(1)10Bb | DRSC20346 | 4.08e7 | 3.72e7 | 1.99e7 | 2.05e7 | inactive

Hits, among the entries above:
gene | dsRNA | calcium entry signal, replicate 1 (fluorescence units) | calcium entry signal, replicate 2 (fluorescence units) | resting calcium signal, replicate 1 (fluorescence units) | resting calcium signal, replicate 2 (fluorescence units) | Outcome
CycA | DRSC09132 | 3.27e7 | 5.44e7 | 2.09e7 | 3.45e7 | active

The list goes on.
gene | dsRNA | calcium entry signal, replicate 1 (fluorescence units) | calcium entry signal, replicate 2 (fluorescence units) | resting calcium signal, replicate 1 (fluorescence units) | resting calcium signal, replicate 2 (fluorescence units) | Outcome
phr | DRSC07662 | 2.34e7 | 2.93e7 | 1.13e7 | 1.29e7 | inactive
ergic53 | DRSC11389 | 3.21e7 | 4.59e7 | 1.60e7 | 1.86e7 | inactive
CG2652 | DRSC18501 | 4.68e7 | 7.51e7 | 2.16e7 | 3.00e7 | inactive
CG2652 | DRSC22576 | 3.16e7 | 3.76e7 | 1.58e7 | 1.53e7 | inactive
CG13492 | DRSC04137 | 4.55e7 | 6.06e7 | 2.21e7 | 2.49e7 | inactive
CG13690 | DRSC00359 | 3.78e7 | 4.26e7 | 1.81e7 | 1.72e7 | inactive
Drep4 | DRSC03408 | 2.99e7 | 1.78e7 | 1.58e7 | 8.61e6 | inactive
sas | DRSC12631 | 4.39e7 | 3.78e7 | 2.12e7 | 1.67e7 | inactive
melt | DRSC11367 | 2.04e7 | 3.88e7 | 1.08e7 | 1.77e7 | inactive
Lrp4 | DRSC20118 | 3.63e7 | 4.28e7 | 1.73e7 | 1.96e7 | inactive
Cep89 | DRSC07110 | 4.23e7 | 3.76e7 | 2.36e7 | 1.76e7 | inactive
CG43312 | DRSC11559 | 3.32e7 | 2.97e7 | 1.68e7 | 1.46e7 | inactive
TotZ | DRSC13450 | 3.87e7 | 3.76e7 | 1.98e7 | 1.78e7 | inactive
CG13928 | DRSC08397 | 3.94e7 | 4.81e7 | 2.00e7 | 2.18e7 | inactive
Sec5 | DRSC00714 | 4.10e7 | – | 2.35e7 | – | inactive
CG43146 (retired record) | DRSC09254 | 4.67e7 | 4.04e7 | 2.06e7 | 1.95e7 | inactive
CG1628 | DRSC18109 | 5.26e7 | 3.97e7 | 2.26e7 | 1.86e7 | inactive
CG31482 | DRSC12582 | 3.98e7 | 2.84e7 | 1.74e7 | 1.41e7 | inactive
Hug | DRSC16969 | 3.92e7 | 3.87e7 | 2.02e7 | 2.01e7 | inactive
